Results from US20100063032A1, “SUBSTITUTED PYRIDO[2,3-D]PYRIMIDINE DERIVATIVES AS CANNABINOID-1 RECEPTOR MODULATORS” (priority 2007, published 2010).
Some of these results come from one statement about several compounds together.

Chains of the proteins cited; added tags and fusions are not shown.
UniProt P21554, whole entry: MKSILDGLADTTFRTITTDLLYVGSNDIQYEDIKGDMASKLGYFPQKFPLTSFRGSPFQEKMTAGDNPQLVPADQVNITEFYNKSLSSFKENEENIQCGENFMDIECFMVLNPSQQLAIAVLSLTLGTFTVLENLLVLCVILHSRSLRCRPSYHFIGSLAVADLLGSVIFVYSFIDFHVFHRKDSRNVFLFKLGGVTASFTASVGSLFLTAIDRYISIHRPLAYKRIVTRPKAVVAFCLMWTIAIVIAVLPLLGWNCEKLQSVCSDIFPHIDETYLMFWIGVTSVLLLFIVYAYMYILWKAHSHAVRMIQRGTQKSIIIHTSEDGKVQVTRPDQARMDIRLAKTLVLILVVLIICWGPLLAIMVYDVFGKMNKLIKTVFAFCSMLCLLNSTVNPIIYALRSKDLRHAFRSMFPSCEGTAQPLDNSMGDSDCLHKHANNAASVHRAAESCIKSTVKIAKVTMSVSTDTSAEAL

Biological target: recombinant human CB1 receptor (Homo sapiens, UniProt P21554)
Assay: Cannabinoid Receptor-1 (CB1) Binding Assay ([3H]CP-55940 displacement)
Settings: recombinant human CB1 in CHO cell membranes, 0.6 nM [3H]CP-55940
Description: Binding affinity determination is based on recombinant human CB1 receptor expressed in Chinese Hamster Ovary (CHO) cells (Felder et al, Mol. Pharmacol. 48: 443-450, 1995). Total assay volume is 250 μl (240 μl CB1 receptor membrane solution plus 5 μl test compound solution plus 5 μl [3H]CP-55940 solution). Final concentration of [3H]CP-55940 is 0.6 nM. Binding buffer contains 50 mM Tris-HCl, pH 7.4, 2.5 mM EDTA, 5 mM MgCl28, 0.5 mg/mL fatty acid free bovine serum albumin and protease inhibitors (Cat#P8340, from Sigma). To initiate the binding reaction, 5 μl of radioligand solution is added, the mixture is incubated with gentle shaking on a shaker for 1.5 h at 30° C. The binding is terminated by using 96-well harvester and filtering through GF/C filter presoaked in 0.05% polyethylenimine. The bound radiolabel is quantitated using scintillation counter. Apparent binding affinities for various compounds are calculated from IC50 values (DeBlasi et al., Trends Pharmacol Sci 10: 227-229, 1989).

| Structure (SMILES) | IC50 [µM] |
| --- | --- |
| CC(C)(C)c1nc(N2CCSCC2)c2cc(-c3ccc(Cl)cc3)c(-c3ccccc3Cl)nc2n1 [Example 44, 2-Tert-butyl-7-(2-chlorophenyl)-6-(4-chlorophenyl)-4-thiomorpholin-4-ylpyrido[2,3-d]pyrimidine] | < 1 |
| CC(C)(C)c1nc(NC2CC2)c2cc(-c3ccc(Cl)cc3)c(-c3ccccc3Cl)nc2n1 [Example 46, 2-Tert-butyl-7-(2-chlorophenyl)-6-(4-chlorophenyl)-N-cyclopropylpyrido[2,3-d]pyrimidin-4-amine] | < 1 |
| CC(C)(C)c1nc(NCC2CC2)c2cc(-c3ccc(Cl)cc3)c(-c3ccccc3Cl)nc2n1 [Example 47, 2-Tert-butyl-7-(2-chlorophenyl)-6-(4-chlorophenyl)-N-(cyclopropylmethyl)pyrido[2,3-d]pyrimidin-4-amine] | < 1 |
| CC(C)(C)Nc1nc(C(C)(C)C)nc2nc(-c3ccccc3Cl)c(-c3ccc(Cl)cc3)cc12 [Example 48, N,2-Di-tert-butyl-7-(2-chlorophenyl)-6-(4-chlorophenyl)pyrido[2,3-d]pyrimidin-4-amine] | < 1 |
| CC(C)(C)c1nc(N2CCOCC2)c2cc(-c3ccc(Cl)cc3)c(-c3ccccc3Cl)nc2n1 [Example 49, 2-Tert-butyl-7-(2-chlorophenyl)-6-(4-chlorophenyl)-4-morpholin-4-ylpyrido[2,3-d]pyrimidine] | < 1 |
| CC(C)(C)c1nc(N2CCS(=O)(=O)CC2)c2cc(-c3ccc(Cl)cc3)c(-c3ccccc3Cl)nc2n1 [Example 50, 2-Tert-butyl-7-(2-chlorophenyl)-6-(4-chlorophenyl)-4-(1,1-dioxidothiomorpholin-4-yl)pyrido[2,3-d]pyrimidine] | < 1 |
| CN(CCO)c1nc(C(C)(C)C)nc2nc(-c3ccccc3Cl)c(-c3ccc(Cl)cc3)cc12 [Example 51, 2-[[2-Tert-butyl-7-(2-chlorophenyl)-6-(4-chlorophenyl)pyrido[2,3-d]pyrimidin-4-yl](methyl)amino]ethanol] | < 1 |
| CCOC(=O)c1nc(N(CC)CC)c2cc(-c3ccc(Cl)cc3)c(-c3ccc(Cl)cc3Cl)nc2n1 [Example 52, Ethyl 6-(4-chlorophenyl)-7-(2,4-dichlorophenyl)-4-(diethylamino)pyrido[2,3-d]pyrimidine-2-carboxylate] | < 1 |
| CC(C)(C)c1nc(NN)c2cc(-c3ccc(Cl)cc3)c(-c3ccccc3Cl)nc2n1 [Example 53, 2-Tert-butyl-7-(2-chlorophenyl)-6-(4-chlorophenyl)-4-hydrazinopyrido[2,3-d]pynmidine] | < 1 |
| CCOC(=O)c1nc(NC(C)C)c2cc(-c3ccc(Cl)cc3)c(-c3ccccc3Cl)nc2n1 [Example 54, Ethyl 7-(2-chlorophenyl)-6-(4-chlorophenyl)-4-(isopropylamino)pyrido[2,3-d]pyrimidine-2-carboxylate] | < 1 |
| CC(C)Nc1nc(C(=O)NC(C)(C)C)nc2nc(-c3ccccc3Cl)c(-c3ccc(Cl)cc3)cc12 [Example 55, N-(Tert-butyl)-7-(2-chlorophenyl)-6-(4-chlorophenyl)-4-(isopropylamino)pyrido[2,3-d]pyrimidine-2-carboxamide] | < 1 |
| CC(C)Nc1nc(C(=O)NCC(F)(F)F)nc2nc(-c3ccccc3Cl)c(-c3ccc(Cl)cc3)cc12 [Example 56, 7-(2-Chlorophenyl)-6-(4-chlorophenyl)-4-(isopropylamino)-N-(2,2,2-trifluoroethyl)pyrido[2,3-d]pyrimidine-2-carboxamide] | < 1 |
| CC(C)Nc1nc(C(=O)N2CCN(C)CC2)nc2nc(-c3ccccc3Cl)c(-c3ccc(Cl)cc3)cc12 [Example 57, 7-(2-Chlorophenyl)-6-(4-chlorophenyl)-N-isopropyl-2-[(4-methylpiperazin-1-yl)carbonyl]pyrido[2,3-d]pyrimidin-4-amine] | < 1 |
| CC(C)(C)c1nc(NCC(F)(F)F)c2cc(-c3ccc(Br)cc3)c(-c3ccccc3Cl)nc2n1 [Example 58, 6-(4-Bromophenyl)-2-tert-butyl-7-(2-chlorophenyl)-N-(2,2,2-trifluoroethyl)pyrido[2,3-d]pyrimidin-4-amine] | < 1 |
